At least one read-out could not be matched to a standard name with certainty.
Assays:
[1] = biological target: T1, HLE (Homo sapiens, UniProt P08246); assay: Deacylation half-life of inactivated HLE; type: biochemical; conditions: after removal of excess inhibitor
T1 construct: human leukocyte elastase (HLE); from tissue; host or cells: human leukocytes (by the enzyme's name only)
T1 sequence (P08246 30-267): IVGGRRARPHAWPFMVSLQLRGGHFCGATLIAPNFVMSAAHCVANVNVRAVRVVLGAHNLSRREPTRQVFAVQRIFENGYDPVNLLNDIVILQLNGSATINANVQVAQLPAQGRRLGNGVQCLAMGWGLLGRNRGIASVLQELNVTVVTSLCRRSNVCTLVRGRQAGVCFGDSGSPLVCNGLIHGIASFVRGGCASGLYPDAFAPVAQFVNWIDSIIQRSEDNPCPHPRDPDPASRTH

Sequences of proteins named here, by UniProt entry; tags and fusion partners are left off. Residues count along the entry.
UniProt P00772, 27-266: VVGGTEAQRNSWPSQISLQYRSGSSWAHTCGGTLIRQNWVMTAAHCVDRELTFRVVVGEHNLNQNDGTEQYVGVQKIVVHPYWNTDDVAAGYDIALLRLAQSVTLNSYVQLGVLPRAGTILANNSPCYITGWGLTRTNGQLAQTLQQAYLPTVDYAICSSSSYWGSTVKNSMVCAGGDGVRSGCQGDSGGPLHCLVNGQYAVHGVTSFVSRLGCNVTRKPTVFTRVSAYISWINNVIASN

[2] = biological target: T2, PPE (Sus scrofa, UniProt P00772); assay: Deacylation half-life of inactivated PPE; type: biochemical, porcine; conditions: after removal of excess inhibitor
T2 construct: porcine pancreatic elastase (PPE); from tissue; host or cells: porcine pancreas (by the enzyme's name only)

Row | Compound | t1/2 for deacylation [1] [h] | t1/2 for deacylation [2] [h]
1 | COc1oc(=O)c2cc(NC(=O)CCC(=O)O)ccc2c1Cl | 1.5 | 1.3
2 | COc1oc(=O)c2cc(NC(=O)c3ccccc3C(=O)O)ccc2c1Cl [7-(o-phthalyl)amino-4-chloro-3-methoxyisocoumarin] | 5.0 | 17

The remaining lines, values ahead:

Row | t1/2 for deacylation [1] [h] | t1/2 for deacylation [2] [h] | Compound
3 | 1.7 | 1.5 | COc1oc(=O)c2cc(NC(=O)CCCC(=O)O)ccc2c1Cl [7-Glutarylamino-4-chloro-3-methoxyisocoumarin]
4 | > 48 | > 48 | COc1oc(=O)c2cc(NC(=O)Nc3ccccc3)ccc2c1Cl [7-PhNHCONH-4-chloro-3-methoxyisocoumarin, 7-phenylcarbamoylamino-4-chloro-3-methoxyisocoumarin]
5 | 1.0 | 1.0 | COC(=O)CCCC(=O)Nc1ccc2c(Cl)c(OC)oc(=O)c2c1 [7-methoxyglutarylamino-4-chloro-3-methoxyisocoumarin]
